About 2,100 (0.66%) of roughly 320,000 compounds were called active. Calls come from the whole dose curve; as a rule, active = well fitted inhibition curve with a large enough effect in the signal ratio, with a control signal flat (not every such curve was filed as active); inconclusive = small, poorly fitted or top-dose-only effect, or effect the other way, or a change in a side signal; inactive = flat fitted curve, though single readings scatter; the % refers to the signal ratio. The inconclusive results got no clear call from the source. Potencies of inconclusive entries are doubtful fits and often do not repeat.
Assay: qHTS Assay for Lipid Storage Modulators in Drosophila S3 Cells
Details: BODIPY lipid droplet fluorescence, 18-24 h, cells fed with added oleic acid; lipid storage change, negative = inhibition: at 46.1 µM (top of the series) unless noted
In short: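 Drosophila S3 cells got compounds at several concentrations plus oleic acid (400 uM solution). Laser-scanning cytometry with 488 nm excitation read lipid droplets at 500-530 nm and cells at 575-640 nm. Percent activity was relative to 20 uM Triacsin C.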
% is set by controls: 0 for no effect and ±100 for the full control effect; potency is the fitted concentration of half-maximal effect.

Potency, inconclusive:
CC1(C)CC2(CCO1)CNC(=O)O2 (stereo not drawn) 0.206 µM [falling, full curve, poor fit], COc1cc2c(cc1OC)C1O[C@](CCCCN3C(=O)c4ccccc4C3=O)(C2)Oc2c1c(=O)oc1ccccc21 0.0335 µM [falling, full curve, poor fit], COc1ccc(NS(=O)(=O)c2cc(NC(=O)c3cnc(C)cn3)ccc2N2CCCC2)cc1 0.58 µM [activator, full curve], CC12CCC(=O)N1C(C(=O)NCCN1C(=O)S/C(=C\c3ccc(OC(F)F)cc3)C1=O)CS2 (stereo not drawn) 29.1 µM [falling, single point], O=C(Nc1ccccc1N1CCN(C(=O)c2ccc(Cl)cc2)CC1)c1cc2ccccc2o1 18.4 µM [rising, single point], C/C(=N\NC(=O)c1c(Cl)cnn1C)c1cccnc1 6.51 µM [falling, single point], COc1ccc(OCC(=O)Nc2ccc3c(c2)n(C)c(=O)n3C)cc1 6.51 µM [activator, partial curve, poor fit], CCc1ccc(CNC(=O)Cc2ccc(NC(=O)C3=C(C)OCCS3)cc2)cc1 3.66 µM [activator, partial curve], CCOC(=O)c1c(NC(=O)COC(=O)c2nc(Cl)ccc2Cl)sc2c1CCC2 5.17 µM [activator, full curve], Cc1ccc(NC(=O)CCS(=O)(=O)c2ccc(Br)s2)cc1 6.51 µM [activator, partial curve, poor fit], O=C(NCc1ccncc1)C1CCCN(S(=O)(=O)c2ccc(Br)cc2)C1 (stereo not drawn) 29.1 µM [activator, single point], COc1ccc2c(c1)c(=O)c(C(=O)c1ccccc1)cn2Cc1ccc(C)cc1 1.84 µM [activator, partial curve], O=C(Nc1ccc(Br)cc1)C1C2C=CC3(O2)C1C(=O)N(CCN1CCCCC1)C3C(=O)NC1CCCCC1 (stereo not drawn) 4.11 µM [falling, single point], CCc1ccc(N2CC(C(=O)NCCC3=CCCCC3)CC2=O)cc1 (stereo not drawn) 14.6 µM [falling, single point], COc1cc(/C=C2\SC(N)=NC2=O)cc(Br)c1O 29.1 µM [falling, single point]

Lipid storage change, negative = inhibition, inconclusive:
O=[N+]([O-])c1ccc(N2CCN(C(=S)NCc3ccc(Cl)cc3)CC2)cc1 -31.7%, O=S(=O)(c1ccc(SCc2ccccc2)nc1)N1CCCC1 -37.8%, CC(=O)Nc1ncc2c(n1)CC(c1ccco1)CC2=O (stereo not drawn) 6.49%, COc1cccc(C2CCCN2Cc2nc(-c3cnccn3)no2)c1 (stereo not drawn) 14.2%, NC(=O)c1c(/N=C/c2cccs2)sc2c1CCCC2 16.6%, Cc1cc(C)nc(N/N=C/c2ccccc2Cl)n1 23.2%, CC(=O)Nc1ccc(S(=O)(=O)N2CCN(C(=O)N3CCCCC3)CC2)cc1 8.89%, O=C(NO)c1ccccc1C(F)(F)F -26.4%, Cc1cc(C)c(-c2nc3ccccc3s2)[nH]1 77.1%, CCOC(=O)[C@H]1[C@H]2COc3ccc(OC)cc3[C@@H]2N2C(=O)CN(Cc3ccco3)C(=O)[C@@]12C -1.57%, Cc1cc(COC(=O)C2N3C(=O)[C@@H](NC(=O)COc4ccccc4)[C@H]3SC2(C)C)on1 (stereo partly drawn) 34.9%, Cc1c(C(=O)N/N=C/c2ccc(N3CCOCC3)cc2)nc2ccccn12 7.9%, CC(=O)NS(=O)(=O)c1ccc(N2C(=O)CC(Sc3nccc(C)n3)C2=O)cc1 (stereo not drawn) -1.69%, CC(=O)Nc1ccc(OCC(O)Cn2ccnc2)cc1 (stereo not drawn) 10.8%, CCCCNc1nnc(SCC(=O)c2c(N)n(CCC)c(=O)[nH]c2=O)s1 28.9%, COc1cc(C2C(C(=O)c3ccco3)=C(O)C(=O)N2Cc2cccnc2)cc(OC)c1OC (stereo not drawn) 23.2%, Cc1ccc(NC(=O)NC(=O)COc2ccc(Cl)cc2Cl)c(C)c1 8.16%, CN1c2ccccc2Oc2c(c(=O)n(C)c(=O)n2C)C1c1cccc([N+](=O)[O-])c1 (stereo not drawn) 13.5%, O=C(NC1CCCCCC1)C(=S)NCCc1ccccc1 1.15%, COC(=O)CCCC1=CC2=C(c3ccccc3)C(=O)C(C)(OC(=O)C3CCCC3)C(=O)C2=CN1CC(C)C (stereo not drawn) -21.5%, CCOC(=O)C1CCN(C(=O)CN(c2cccc(OC)c2)S(=O)(=O)c2ccccc2)CC1 -9.08%, Nc1nc(NC(=O)/C=C/c2ccccc2)nn1-c1ccccc1 13.5%, NNC(=O)c1ccc(COc2cccc3cccnc23)cc1 -12.3%, CC(=O)c1cccc(NC(=O)CN2C(=O)NC3(CCCCCCC3)C2=O)c1 6.22%, COc1ccc(C(=O)NC(=S)Nc2ccccc2N2CCOCC2)cc1[N+](=O)[O-] -85.6%, O=C(CP(=O)(c1ccccc1)c1ccccc1)Nc1nc2ccc(Cl)cc2s1 10.8%, CCCN(CCC)CCNC(=O)c1cc2c(C)nc3ccccc3c2o1 20.6%, CCCCOc1ccc(S(=O)(=O)NNC(=O)C2Cc3c(ccc4ccccc34)O2)cc1 (stereo not drawn) 10.6%, Cc1cc(C(=O)COC(=O)c2ccc[nH]c2=O)c(C)n1-c1ccccc1 3.32%, COCc1cc(C)[nH]c(=O)c1C#N 7.11%, CN(CC1CCCN(CCc2ccc(F)cc2)C1)C(=O)CCC(N)=O (stereo not drawn) 33.5%, Cc1ccccc1-c1nn[nH]n1 -47.5%, CCN(CC(=O)Nc1ccccc1C(F)(F)F)C(=O)CCOc1ccccc1C 7.33%
